These are yes or no findings as the source states them, for the method shown. In cells and extracts the contact can be indirect. Binding can be weak; no strength is given.
Target: T1, Trf4 (S. cerevisiae (endogenous in yeast cells)) (UniProt P53632)
T1 sequence: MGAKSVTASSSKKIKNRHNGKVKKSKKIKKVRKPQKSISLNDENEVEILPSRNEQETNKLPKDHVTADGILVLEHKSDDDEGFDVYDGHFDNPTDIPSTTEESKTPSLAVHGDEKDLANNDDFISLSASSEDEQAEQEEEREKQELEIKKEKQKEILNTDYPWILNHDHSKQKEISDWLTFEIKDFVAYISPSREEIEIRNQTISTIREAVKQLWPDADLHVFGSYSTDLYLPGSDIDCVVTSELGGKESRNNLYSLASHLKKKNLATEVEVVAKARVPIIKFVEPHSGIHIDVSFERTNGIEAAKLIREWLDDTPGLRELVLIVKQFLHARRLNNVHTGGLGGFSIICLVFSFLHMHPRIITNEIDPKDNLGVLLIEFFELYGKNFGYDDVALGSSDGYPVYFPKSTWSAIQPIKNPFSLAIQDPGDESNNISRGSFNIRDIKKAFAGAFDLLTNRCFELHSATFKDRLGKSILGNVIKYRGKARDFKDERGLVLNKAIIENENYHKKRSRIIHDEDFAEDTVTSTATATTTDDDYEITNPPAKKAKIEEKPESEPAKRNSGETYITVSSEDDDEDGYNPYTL
Experiment: co-IP; non-TAP co-IP from cleared yeast lysates of Pbp1-1Q and Pbp1-30Q cells: 2 μg antibody 2 h at 4 °C, then Protein-A sepharose beads 1 h at 4 °C; same lysis buffer; western blot

For Ty1 Gag protein (S. cerevisiae), the binding was “binds”.
